Source: PMC8423755
Results are given in words; binding and its absence hold for the method and conditions named. In cells and extracts the contact can be indirect. Some entries that bind do so weakly or less than the wild type. For some of these results: Sequences can lack the tags named with a protein.

Columns and labels:
[1] = target: T1, CARM1 (human (endogenous in A1847)) (UniProt Q86X55); assay: proximity ligation; in situ PLA in fixed, permeabilised cells treated with or without tunicamycin; rabbit anti-XBP1 and mouse anti-CARM1 primary antibodies; isotype-matched IgG as negative control
T1 sequence: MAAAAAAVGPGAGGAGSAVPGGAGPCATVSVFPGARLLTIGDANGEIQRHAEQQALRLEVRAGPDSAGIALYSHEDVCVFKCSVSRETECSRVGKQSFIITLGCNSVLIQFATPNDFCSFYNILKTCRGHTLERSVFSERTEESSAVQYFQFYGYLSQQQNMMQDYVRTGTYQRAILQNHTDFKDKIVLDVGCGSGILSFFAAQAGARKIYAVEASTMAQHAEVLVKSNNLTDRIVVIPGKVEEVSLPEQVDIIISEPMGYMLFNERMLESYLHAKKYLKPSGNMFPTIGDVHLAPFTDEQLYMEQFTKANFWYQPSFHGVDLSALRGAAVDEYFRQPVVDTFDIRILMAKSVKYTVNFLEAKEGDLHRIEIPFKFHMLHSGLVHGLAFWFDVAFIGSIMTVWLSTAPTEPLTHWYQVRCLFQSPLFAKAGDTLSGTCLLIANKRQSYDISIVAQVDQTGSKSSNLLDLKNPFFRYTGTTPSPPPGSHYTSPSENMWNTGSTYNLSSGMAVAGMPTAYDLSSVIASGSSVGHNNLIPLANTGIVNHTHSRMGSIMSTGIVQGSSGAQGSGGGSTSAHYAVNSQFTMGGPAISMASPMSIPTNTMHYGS

[2] = target: T1, CARM1 (human (endogenous in A1847)); assay: co-IP; anti-CARM1 antibody (control IgG) with protein A + G Dynabeads in extracts of A1847 cells treated with or without tunicamycin (5 ug/ml, 8 h); washes in buffer A with 150 mM NaCl; western blot
GST-tagged CARM1 (human) = target: T2, GST-tagged CARM1 (human) (UniProt Q86X55); assay: pull-down; GST-CARM1 or GST-CARM1 truncation mutants on glutathione-sepharose beads, mixed with extracts of A1847 cells treated with vehicle or tunicamycin (5 ug/ml, 8 h), 4 C, 4 h, buffer A with 150 mM NaCl; western blot; only the target purified
T2 sequence: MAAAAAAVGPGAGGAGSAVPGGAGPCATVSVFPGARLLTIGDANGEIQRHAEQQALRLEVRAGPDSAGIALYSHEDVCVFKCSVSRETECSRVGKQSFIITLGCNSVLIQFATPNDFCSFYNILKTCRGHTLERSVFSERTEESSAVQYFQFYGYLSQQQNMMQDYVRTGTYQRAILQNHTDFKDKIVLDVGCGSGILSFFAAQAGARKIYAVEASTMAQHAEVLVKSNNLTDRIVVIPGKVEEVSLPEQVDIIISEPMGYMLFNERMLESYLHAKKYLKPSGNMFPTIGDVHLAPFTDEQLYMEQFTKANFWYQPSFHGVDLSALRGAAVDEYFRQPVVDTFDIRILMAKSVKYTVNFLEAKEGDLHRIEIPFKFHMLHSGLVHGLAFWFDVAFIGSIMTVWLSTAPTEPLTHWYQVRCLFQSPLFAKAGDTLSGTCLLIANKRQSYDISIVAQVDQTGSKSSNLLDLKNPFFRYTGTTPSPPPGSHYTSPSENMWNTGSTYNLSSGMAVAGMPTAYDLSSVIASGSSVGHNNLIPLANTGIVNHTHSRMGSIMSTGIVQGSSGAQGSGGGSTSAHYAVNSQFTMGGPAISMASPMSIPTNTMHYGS

[3] = target: T3, GST-tagged CARM1 catalytic domain (141-480) (human) (UniProt Q86X55); assay: as above
T3 sequence: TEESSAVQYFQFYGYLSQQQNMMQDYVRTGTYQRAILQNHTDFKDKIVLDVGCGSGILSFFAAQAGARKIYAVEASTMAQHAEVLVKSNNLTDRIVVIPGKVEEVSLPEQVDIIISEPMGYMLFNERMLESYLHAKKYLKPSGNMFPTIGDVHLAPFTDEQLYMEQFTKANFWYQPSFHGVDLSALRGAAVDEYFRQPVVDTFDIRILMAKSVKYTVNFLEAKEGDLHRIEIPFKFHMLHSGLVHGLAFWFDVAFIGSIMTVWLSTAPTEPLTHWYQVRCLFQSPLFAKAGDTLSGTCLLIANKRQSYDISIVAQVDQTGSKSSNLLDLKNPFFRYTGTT

Measured: binding

B1: spliced XBP1 (XBP1s) (protein, UniProt P17861-2 1-376)
chain: MVVVAAAPNPADGTPKVLLLSGQPASAAGAPAGQALPLMVPAQRGASPEAASGGLPQARKRQRLTHLSPEEKALRRKLKNRVAAQTARDRKKARMSELEQQVVDLEEENQKLLLENQLLREKTHGLVVENQELRQRLGMDALVAEEEAEAKGNEVRPVAGSAESAAGAGPVVTPPEHLPMDSGGIDSSDSESDILLGILDNLDPVMFFKCPSPEPASLEELPEVYPEGPSSLPASLSLSVGTSSAKLEAINELIRFDHIYTKPLVLEIPSETESQANVVVKIEEAPLSPSENDHPEFIVSVKEEPVEDDLVPELGISNLLSSSHCPKPSSCLLDAYSDCGYGGSLSPFSDMSSLLGVNHSWEDTFANELFPQLISV
binds: all assays above
